Results taken from US12599588B2, “Inhibitor for V-ATPase activity, antibacterial agent, medicine, antibacterial method and screening method” (Japan Science and Technology Agency, priority 2019, dated 2026).
Some of these results come from one statement about several compounds together.

Tested on: enterococci (Enterococcus hirae)
Assay: Growth experiment of enterococci (secondary screening), OD600 at pH 7.0 and pH 8.5
Assay type: cell-based
Method: In the culture of enterococci (Enterococcus hirae), a culture medium in which the Na^+ concentration had been adjusted by adding a buffer solution using 2% tryptone and 1% yeast extract as the base was used. In a case of adding glucose, glucose prepared in a 50% solution was added so as to be 1% into the culture medium when the culture medium was used. The whole amount 200 μL was cultured using a 96-well plate, and OD600 was measured every hour by using a plate reader. By using culture media at pH 7.0 and pH 8.5, the effect of pH on the growth was observed. In culture of bacteria, the pH often fluctuates largely due to the decomposition of the sugars required for the growth, and it is extremely important to maintain a constant pH in this experiment, and therefore, the pH was maintained constant with the addition of a buffer suitable for each pH. Since the V-ATPase is expressed only under an alkaline condition, the growth inhibition observed with the addition of an inhibitor is largely dependent on the pH.
IC50 and the like of the above 24 kinds of compounds are described in the following table. […] Furthermore, with respect to the symbol “n.a.”, a compound having a growth inhibition rate of 60% or more at pH 7.0 is determined that there was the growth inhibition. In addition, the growth inhibition rate of a compound having no clear inhibition is also recorded for reference.

## CCCCCCCCCOc1ccc(C=C2C(=O)NC(=O)NC2=O)cc1 [Compound V-130, 5-(4-(nonyloxy)benzylidene)pyrimidine-2,4,6 (1H,3H,5H)-trione]
  high growth inhibitory effect (growth inhibition rate (%)): >= 70%
